Experimental data from patent publication US20220098256A1 (TOKUSHIMA UNIVERSITY, published 2022).
These are yes or no findings as the source states them, for the method shown. Binding seen in cells or lysates may run through a third protein. Some results given as binding are weak or reduced against the parent protein; the word gives no strength.

Amino acid sequences for entries named in this document (tags omitted). A change or cut given only in a name is not applied to a line headed by its entry.
UniProt Q5TH69: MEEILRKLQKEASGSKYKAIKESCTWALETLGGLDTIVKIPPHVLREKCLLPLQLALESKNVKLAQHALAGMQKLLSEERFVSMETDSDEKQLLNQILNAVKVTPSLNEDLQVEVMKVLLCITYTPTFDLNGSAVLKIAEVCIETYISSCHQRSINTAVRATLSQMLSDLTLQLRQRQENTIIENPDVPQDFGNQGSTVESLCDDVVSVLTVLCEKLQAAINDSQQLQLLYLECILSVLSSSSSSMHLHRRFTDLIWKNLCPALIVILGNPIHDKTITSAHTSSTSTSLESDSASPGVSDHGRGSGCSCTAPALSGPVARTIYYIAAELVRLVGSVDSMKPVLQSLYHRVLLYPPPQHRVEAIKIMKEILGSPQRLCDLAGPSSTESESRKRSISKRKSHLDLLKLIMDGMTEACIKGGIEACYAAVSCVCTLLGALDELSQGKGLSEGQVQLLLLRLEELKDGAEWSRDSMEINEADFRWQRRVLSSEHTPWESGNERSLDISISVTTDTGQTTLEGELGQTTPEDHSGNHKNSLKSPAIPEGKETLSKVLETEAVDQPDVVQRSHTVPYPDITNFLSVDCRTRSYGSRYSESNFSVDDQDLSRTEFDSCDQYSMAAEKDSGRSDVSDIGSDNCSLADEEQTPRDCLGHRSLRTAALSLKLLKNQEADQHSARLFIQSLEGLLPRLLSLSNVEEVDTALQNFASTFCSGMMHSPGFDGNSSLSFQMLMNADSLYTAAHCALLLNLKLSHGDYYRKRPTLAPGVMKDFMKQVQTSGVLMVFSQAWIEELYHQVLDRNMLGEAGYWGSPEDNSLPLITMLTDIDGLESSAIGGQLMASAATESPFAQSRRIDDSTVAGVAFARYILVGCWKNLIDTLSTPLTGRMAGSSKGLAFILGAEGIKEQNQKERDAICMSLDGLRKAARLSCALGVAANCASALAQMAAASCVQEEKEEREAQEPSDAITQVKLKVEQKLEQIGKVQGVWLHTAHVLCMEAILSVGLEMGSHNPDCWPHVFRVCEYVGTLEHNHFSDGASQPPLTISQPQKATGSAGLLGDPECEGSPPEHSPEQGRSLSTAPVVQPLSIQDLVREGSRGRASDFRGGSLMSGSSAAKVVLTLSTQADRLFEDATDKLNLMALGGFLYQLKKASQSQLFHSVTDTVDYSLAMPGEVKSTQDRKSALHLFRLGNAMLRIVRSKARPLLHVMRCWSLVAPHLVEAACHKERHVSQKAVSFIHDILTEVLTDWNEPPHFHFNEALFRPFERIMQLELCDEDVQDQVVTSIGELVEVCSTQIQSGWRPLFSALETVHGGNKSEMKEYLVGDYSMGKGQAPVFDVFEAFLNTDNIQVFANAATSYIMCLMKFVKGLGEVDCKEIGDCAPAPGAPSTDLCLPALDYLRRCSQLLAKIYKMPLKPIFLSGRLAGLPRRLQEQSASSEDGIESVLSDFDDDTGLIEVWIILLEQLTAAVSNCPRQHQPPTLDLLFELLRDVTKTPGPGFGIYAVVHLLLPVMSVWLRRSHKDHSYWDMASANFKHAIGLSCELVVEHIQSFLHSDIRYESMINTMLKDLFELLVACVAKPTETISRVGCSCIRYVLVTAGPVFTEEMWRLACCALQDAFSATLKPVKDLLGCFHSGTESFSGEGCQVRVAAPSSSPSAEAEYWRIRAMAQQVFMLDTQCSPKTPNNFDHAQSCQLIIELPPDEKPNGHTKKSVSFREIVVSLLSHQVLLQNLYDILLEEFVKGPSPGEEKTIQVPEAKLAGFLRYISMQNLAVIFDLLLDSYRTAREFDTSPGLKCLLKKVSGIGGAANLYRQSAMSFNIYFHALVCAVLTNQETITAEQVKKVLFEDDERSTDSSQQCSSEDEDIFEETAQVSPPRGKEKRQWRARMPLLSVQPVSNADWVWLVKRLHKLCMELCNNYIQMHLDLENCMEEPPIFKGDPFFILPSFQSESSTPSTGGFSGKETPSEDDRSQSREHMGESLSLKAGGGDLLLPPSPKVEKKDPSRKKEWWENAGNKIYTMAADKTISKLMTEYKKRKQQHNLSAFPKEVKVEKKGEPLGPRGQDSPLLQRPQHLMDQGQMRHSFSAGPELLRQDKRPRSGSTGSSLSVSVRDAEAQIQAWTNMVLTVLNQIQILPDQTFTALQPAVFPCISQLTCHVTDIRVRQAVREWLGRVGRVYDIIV

Molecular target: prohibitin 2 (PHB2) (human)
Assay: co-immunoprecipitation from MCF-7 lysate, Western blotting

- binding: binds
Substance: brefeldin A-inhibited guanine nucleotide-exchange protein 3 (BIG3) (from UniProt Q5TH69 1-2177)
